## Library screen at single concentrations

Sequences of proteins named here, by UniProt entry; tags and fusion partners are left off. Residues count along the entry.
UniProt Q4DA54, 1-478: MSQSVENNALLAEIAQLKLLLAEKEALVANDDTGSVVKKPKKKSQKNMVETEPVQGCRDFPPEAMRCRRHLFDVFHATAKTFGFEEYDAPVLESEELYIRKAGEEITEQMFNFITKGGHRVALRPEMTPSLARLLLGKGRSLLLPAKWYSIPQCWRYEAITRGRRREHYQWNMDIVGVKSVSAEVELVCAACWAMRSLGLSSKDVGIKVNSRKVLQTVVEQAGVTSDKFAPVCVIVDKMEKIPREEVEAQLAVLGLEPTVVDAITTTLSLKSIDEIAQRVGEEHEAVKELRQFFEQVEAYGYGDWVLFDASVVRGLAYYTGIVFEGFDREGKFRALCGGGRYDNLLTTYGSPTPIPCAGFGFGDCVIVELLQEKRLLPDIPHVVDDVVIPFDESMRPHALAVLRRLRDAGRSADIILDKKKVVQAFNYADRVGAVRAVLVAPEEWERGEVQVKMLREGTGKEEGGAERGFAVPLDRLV
UniProt P9WNZ1, whole entry: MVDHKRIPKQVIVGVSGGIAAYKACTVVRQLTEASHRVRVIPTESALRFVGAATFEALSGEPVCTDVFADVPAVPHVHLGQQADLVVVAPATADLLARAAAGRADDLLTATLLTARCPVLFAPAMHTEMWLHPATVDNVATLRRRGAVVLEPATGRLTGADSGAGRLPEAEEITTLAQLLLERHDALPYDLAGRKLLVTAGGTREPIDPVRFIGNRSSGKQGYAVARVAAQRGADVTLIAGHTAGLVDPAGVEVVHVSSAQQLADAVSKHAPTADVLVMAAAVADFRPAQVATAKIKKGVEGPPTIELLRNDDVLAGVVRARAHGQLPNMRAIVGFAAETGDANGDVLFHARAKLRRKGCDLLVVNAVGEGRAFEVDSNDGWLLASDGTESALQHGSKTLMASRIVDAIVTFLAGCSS
UniProt A4I591, 1-473: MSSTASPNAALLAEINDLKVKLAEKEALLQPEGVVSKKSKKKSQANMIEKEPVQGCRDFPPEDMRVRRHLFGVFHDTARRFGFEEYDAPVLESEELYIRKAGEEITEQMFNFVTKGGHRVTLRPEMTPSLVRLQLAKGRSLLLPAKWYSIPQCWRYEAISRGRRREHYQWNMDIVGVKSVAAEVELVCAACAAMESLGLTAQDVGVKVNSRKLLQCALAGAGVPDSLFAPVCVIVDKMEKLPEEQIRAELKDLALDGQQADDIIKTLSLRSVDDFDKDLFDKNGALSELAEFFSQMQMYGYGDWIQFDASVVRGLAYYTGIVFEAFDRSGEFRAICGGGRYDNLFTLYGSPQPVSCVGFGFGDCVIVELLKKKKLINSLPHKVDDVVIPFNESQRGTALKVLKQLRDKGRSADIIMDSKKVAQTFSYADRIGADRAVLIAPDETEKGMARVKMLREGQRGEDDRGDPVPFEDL

Source: ChEMBL document CHEMBL3988442, “University of Dundee, Small-Polar-MMV Screening Library” (2021).

A: 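Histidine-tRNA ligase, Trypanosoma cruzi CL Brener (UniProt Q4DA54). Enzyme assay of histidyl-tRNA synthetase; the read-out is not stated. Tested at 30 µM. Higher reads as stronger inhibition (inferred: compounds with an IC50 in retests scored well above the rest). Of about 69,000 compounds tested this way, about 31 (0.045%) reached 50% or more in at least one test.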
B: 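Coenzyme A biosynthesis protein CoaBC, Mycobacterium tuberculosis (UniProt P9WNZ1). Enzyme assay of CoaBC with a phosphate dye (Biomol Green) read at 650 nm. Tested at 30 µM. Direction is inferred from only a few compounds that gave an IC50; most scored high, so higher reads as stronger inhibition. Most strong results did not repeat in a second test. Of about 67,000 compounds tested this way, about 40 (0.06%) reached 50% or more in at least one test.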
C: 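Histidine-tRNA ligase, Leishmania infantum (UniProt A4I591). Enzyme assay of histidyl-tRNA synthetase; the read-out is not stated. Compounds at 30 µM. The record gives no direction; compounds that gave an IC50 in retests scored well above the rest, so higher reads as stronger inhibition. The assay is labelled LdHisRS but filed under L. infantum. Size under these conditions: about 69,000 compounds, about 410 of them at 50% or above in at least one test.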

Values are the deposited “Percent Effect”, in %. The controls that fix the scale are not given in the record; negative values are as filed. Compounds were drawn at random from those tested, without regard to their results. Two or more numbers in one place are separate tests of the same structure; such repeats can differ widely.

c1cc(CN2C[C@@H]3COC[C@]3(COCC3CC3)C2)ccn1 gave A: -2.732%; B: -6.595%; C: 7.767%. For CCC(C)Sc1ncc(-c2c(C#N)c(N)nc3c2COCC3)cn1 (stereo not given) the result was A: 6.931%; B: -2.309%; C: 2.174%. Result for CC(C)n1cc(CN2CCCN(C(=O)c3ccnn3C)CC2)cn1 was A: 8.247%; B: 1.222%; C: 8.065%. For Cc1nc(CN2CCCC23CCN(c2nc4ccccc4s2)CC3)co1 the result was A: 7.328%; B: 3.422%; C: 8.861%.

Result for CN(C)CC(=O)N1CCC2(CC1)CN(c1ncccn1)CCO2 was A: 2.041%; B: -0.8653%; C: 5%. With COCCN1C(=O)[C@H]2CC[C@@H]1CN(Cc1nnc(C3CC3)o1)C2 the screen gave A: 4%; B: 4.132%; C: -2.041%. CC(OCC(F)(F)F)C(=O)N1CCN(S(C)(=O)=O)CC1 (stereo not given) gave A: 1.653%; B: -13.01%; C: 19.23%. O=C(c1ccsc1)N1CCc2onc(CN3CCOCC3)c2C1 gave A: 3.448%; B: 1.434%; C: 10%.

Cc1cnn(CC2CN(Cc3nc(-c4ccccn4)no3)CCO2)c1 (stereo not given) read A: 3.779%; B: 3.842%; C: 6.14%. For COc1ccc(Br)c(C(=O)N2CCC(c3n[nH]c(C4CC4)n3)CC2)c1 the result was A: 1.88%; B: -1.567%; C: 21.62%. For CC(=O)N1CCCN(C(=O)NCCCc2cn[nH]c2C)CC1 the result was A: 2.618%; B: -0.2141%; C: 0%. For COc1cccc(OC)c1-c1ccnc2cc(CC(=O)NC(C)C)nn12 the result was A: 4.52%; B: 3.735%; C: 17.14%.

CN(Cc1ccncc1)Cc1nccn1Cc1ccccc1 gave A: 1.064%; B: 18.44%; C: 6.25%. CC(C)(C)c1cc(NC(=O)CN2CCCCC2Cn2cncn2)on1 (stereo not given) read A: 6.494%; C: 5.714%. For CC(c1nc(C2CC2)no1)N1CCN(Cc2nnc(C3CC3)o2)CC1 (stereo not given) the result was A: 4.274%; B: -7.239%; C: 10.26%. For COc1ccc(CC(=O)Nc2ccc3ncn(C(C)C)c(=O)c3c2)cc1 the result was A: -0.5181%; B: 4.639% & 26.04%; C: 5.618%.

CC(C)CNC(=O)Nc1cccc(CN2CCOC2=O)c1 gave A: -1.058%; B: 12.43%; C: 21.21%. Result for COc1ccc(CN2C[C@@H](CN(C)CCO)[C@@H](CO)C2)cc1Cl was A: 4.082%; B: 3.121%; C: 14.88%. CN(Cc1cccnc1)[C@@H]1CN(c2ccccn2)[C@@H]2CCCO[C@H]12 gave A: 0.9524%; B: 4.809%; C: -2.778%. CC(C1CCN(Cc2c(Cl)cncc2Cl)CC1)N1CCN(C)CC1 (stereo not given) gave A: -0.5405%; B: 2.991%; C: 10.26%.

Cc1cc(CN2CCN(C(=O)c3sccc3C(C)C)CC2)no1 gave A: 1.887%; B: 0.5128%; C: 8%. For O=C1COc2ccc(C(=O)NS(=O)(=O)c3ccc(F)cc3F)cc2N1 the result was A: 0%; B: -2.504%; C: 13.64%. Cc1cnn(CC2CCCN2C(=O)c2cccc3[nH]ncc23)c1 (stereo not given) gave A: 8.455%; B: 9.838%; C: 16.51%. COc1ccnc(N2CCN(C(=O)c3cscn3)CC2)n1 read A: 1.163%; B: 10.3%; C: 11.48%.

With CCc1cc(CN2CCC(CCC(=O)Nc3ccccc3Cl)CC2)on1 the screen gave A: 7.921%; B: -2.121%; C: 26.03%. With O=C(O)C1(Cc2ccc(-c3cccs3)cc2)CCNC1 (stereo not given) the screen gave A: 5.303%; B: -4.468%; C: 4.348%. Result for CC1=N[C@@]2(CC[C@@H]3CN(S(=O)(=O)C4CC4)C[C@@H]32)C(=O)N1CC(C)C was A: -0.9852%; B: 0%; C: -14.71%. Result for CN1CCC(N[C@@H]2CO[C@H](CNC(=O)Nc3ccccc3)[C@H]2O)CC1 was A: 4.348%; B: 13.91%; C: 22.97%.

CC(C)(C)NC(=O)C1CSCN1S(=O)(=O)c1ccccc1F (stereo not given) gave A: 3.191%; B: 7.229%; C: 22.39%. For CCOc1ccccc1-n1c(C2CCC2)n[nH]c1=O the result was A: 4.478%; B: 1.38%; C: 15.66%. With CCCc1nc(C(C)(C)NC(=O)C2CC(=O)N(CC(C)C)C2)no1 (stereo not given) the screen gave A: 5.848%; B: -0.7653%; C: 14.55%. With COCCCC1(CO)CCCN(Cc2ccc(F)c(OC)c2)C1 (stereo not given) the screen gave A: 5.435%; B: 2.336%; C: 19.74%.

4 of the entries, repeated:

compound,A,B,C
COc1ccc(CC(=O)Nc2ccc3ncn(C(C)C)c(=O)c3c2)cc1,-0.5181,4.639 & 26.04,5.618
c1cc(CN2C[C@@H]3COC[C@]3(COCC3CC3)C2)ccn1,-2.732,-6.595,7.767
Cc1cnn(CC2CN(Cc3nc(-c4ccccn4)no3)CCO2)c1 (stereo not given),3.779,3.842,6.14
CC(OCC(F)(F)F)C(=O)N1CCN(S(C)(=O)=O)CC1 (stereo not given),1.653,-13.01,19.23